Results on 54 sequences are retold here after PMC7819943, “Rice protein-binding microarrays: a tool to detect cis-acting elements near promoter regions in rice”.

The chains behind the UniProt entries cited, without tags or fusion partners.
UniProt Q0JBA9, entry or part of it: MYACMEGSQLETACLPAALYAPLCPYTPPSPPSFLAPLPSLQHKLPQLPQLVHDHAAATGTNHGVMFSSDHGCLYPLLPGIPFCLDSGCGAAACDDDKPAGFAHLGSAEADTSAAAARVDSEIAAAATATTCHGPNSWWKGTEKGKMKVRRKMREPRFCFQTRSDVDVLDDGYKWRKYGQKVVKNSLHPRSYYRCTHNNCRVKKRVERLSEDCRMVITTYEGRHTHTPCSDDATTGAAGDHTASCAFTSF

The list shows a part of the results.

The target of the assay is OsWRKY34 (Oryza sativa, UniProt Q0JBA9 1-250). The assay is described as follows: protein-binding microarray (RPBM); PBS, 2% BSA, 51.3 ng/ul salmon testes DNA, 50 uM zinc acetate, 200 nM TF, 25 C, 1 h; high values mean tight binding. Conditions: protein: recombinant; tags: N-terminal polyhistidine and DsRed monomer fusion (pET32a); label: CyDye5-dUTP incorporated in the synthesized complementary strand; 3' TTTTT single-stranded linker to array surface; dsDNA, one strand shown. The method, boiled down:
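Polyhistidine-tagged DsRed fusions of transcription factors, joined at the N-terminus, were expressed in E. coli BL21-CodonPlus and isolated on Ni–NTA. They were incubated at 200 nM for 1 h at 25 °C on a custom Agilent array, double-stranded and BSA-blocked, in PBS with 2% BSA, salmon testes DNA and 50 µM zinc acetate. The binding signal is per-feature fluorescence intensity (arbitrary units) read on an Axon 4000B scanner after washing.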
On to “ATCCCTAGGTCTATAGCAGCGCTCCTCTTCATATCCTCATCGGAGTCACCTAGTGCAG”, for which the binding signal is 8060 fluorescence intensity (a.u.). On to “AAATCATCCATCCATCCTCTACGTTCCCGATCCACCGATGCGGAGTCACCTAGTGCAG”, for which the binding signal was 8180 fluorescence intensity (a.u.). The same measure for “TCCTCTCTCTCCTCTGATCTCTCCATCAGGTCTAATTTTTCGGAGTCACCTAGTGCAG”: 12900 fluorescence intensity (a.u.); for “CCCTCGTGCCTATATGTAAGTAACCACGTTTCCGTGAAGTCGGAGTCACCTAGTGCAG”: 9950 fluorescence intensity (a.u.); for “CCCAATTGTTATCCTACTTCAGACACTGATTCTAAATTCACGGAGTCACCTAGTGCAG”: 10300 fluorescence intensity (a.u.). The same measure for “CCCCACCCCTCATTCACTCTCCACCGCACCGCACCGCACCCGGAGTCACCTAGTGCAG”: 8860 fluorescence intensity (a.u.); for “GCCGCCCGACCTCCTCTCCCACCTCGCGCCCGCCGGCCGGCGGAGTCACCTAGTGCAG”: 8410 fluorescence intensity (a.u.); for “TACTGATTTTCTTTATGTCTCTTTGTGGTCCCTTTGCAGTCGGAGTCACCTAGTGCAG”: 13400 fluorescence intensity (a.u.). For the sequence “CATCATCTCTATCATCATTTCTCATCCATCACTTTCTTTGCGGAGTCACCTAGTGCAG”, the binding signal is 11600 fluorescence intensity (a.u.). To “TGGTGATTGTCTTATATTTTGGGATAGATGAGATATTTATCGGAGTCACCTAGTGCAG” belongs 8290 fluorescence intensity (a.u.); to “ACATTATTGTCATTGTCCTAGTAAATTATATATTTCATCGCGGAGTCACCTAGTGCAG”, 8130 fluorescence intensity (a.u.); to “GGCTTACGAGTTCTAACAACGTCATTTTGGACTCACCTTTCGGAGTCACCTAGTGCAG”, 9200 fluorescence intensity (a.u.). The same measure for “ACCTTTCCATCACTACAGTGTTTTGCTACAGTGCTCGGATCGGAGTCACCTAGTGCAG”: 10200 fluorescence intensity (a.u.); for “CATATCCCGGCCAAGTTACGATCTTACTGTCTTTCCTTATCGGAGTCACCTAGTGCAG”: 12300 fluorescence intensity (a.u.); for “TTTCGAAATGTTTGACACTGTTGACTTTTTAGCACATGTTCGGAGTCACCTAGTGCAG”: 14200 fluorescence intensity (a.u.).

For “CATCTATCTTCATTCTTCATCTCTTTCGATGGAAAGACCGCGGAGTCACCTAGTGCAG”, the binding signal was 8890 fluorescence intensity (a.u.). To “GATTCCCTGCTTAGTCTGTTGTTATTTTTCAATAGTTTGACGGAGTCACCTAGTGCAG” belongs 10900 fluorescence intensity (a.u.); to “TCGCCGAACTCCACCAAACCGGTCGCTATTTTCTTCCTTTCGGAGTCACCTAGTGCAG”, 10900 fluorescence intensity (a.u.). On to “ATTACCGTACGGATCCTCCTGCAGTAGACTGGCGCAATTACGGAGTCACCTAGTGCAG”, for which the binding signal is 8540 fluorescence intensity (a.u.). As to “GTGGTAAGGCATCCCACCTAAAATTTTTCATCCTGTCACACGGAGTCACCTAGTGCAG”, the binding signal is 8410 fluorescence intensity (a.u.). The same measure for “ACCTTTTTCATGATGTTTTAAAGTTTATTTGGGATTAGCACGGAGTCACCTAGTGCAG”: 9740 fluorescence intensity (a.u.); for “TGACTTTCGCCTCTCGCGCCTTTTCTACAGCTATAAGCACCGGAGTCACCTAGTGCAG”: 10600 fluorescence intensity (a.u.).

For the sequence “GCATTGAATTCACTATACATCTTGATTACACCTTATGTTACGGAGTCACCTAGTGCAG”, the binding signal is 12000 fluorescence intensity (a.u.). The same measure for “TTTTTCCTATTCTATCCAATAAATTATCGCGTTGTCTGGTCGGAGTCACCTAGTGCAG”: 9770 fluorescence intensity (a.u.). For the sequence “CATTCCCTTTGCGCGCAGCCTCGTCGCCTCGCCTCGCCGACGGAGTCACCTAGTGCAG”, the binding signal was 8640 fluorescence intensity (a.u.). The same measure for “ATTTTTCTCTAATTTCCCTTTCATTCCTTCCATTTTTCCTCGGAGTCACCTAGTGCAG”: 9330 fluorescence intensity (a.u.); for “CCACGTCCTCGGTTCCATTCGGACTCCCGTACACCGCCCACGGAGTCACCTAGTGCAG”: 9160 fluorescence intensity (a.u.). Turning to “GCCTCCATCCACCTCGCCCATCCCTACACTCTACTACTCCCGGAGTCACCTAGTGCAG”, the binding signal was 8670 fluorescence intensity (a.u.). “CTAGTTGCTCCTAACTTGGCCTACTGTCCTCCATCTCCAACGGAGTCACCTAGTGCAG”: the binding signal is 9280 fluorescence intensity (a.u.).

With “TGGGTGGGTGGTTGCCACTTGGACACGTAGCCGGCGCCCCCGGAGTCACCTAGTGCAG”, the binding signal was 12000 fluorescence intensity (a.u.). To “GTACTACTCCAATCATTCCTCATTTAAATTTTTTTCTCAACGGAGTCACCTAGTGCAG” belongs 8090 fluorescence intensity (a.u.). Take “AGCAGAACTCCTAGAAAGTAATGTTCGTTGACTTAAGTTCCGGAGTCACCTAGTGCAG”: the binding signal was 8450 fluorescence intensity (a.u.).

As to “GTTCCACAGTCCACACCCACGCACACAAGCAAGCGGCCTCCGGAGTCACCTAGTGCAG”, the binding signal was 11000 fluorescence intensity (a.u.). With “CCCTGCTGCTCCAAGCTTATCCTCTCCTTCTCTCTCCTCTCGGAGTCACCTAGTGCAG”, the binding signal was 9540 fluorescence intensity (a.u.). As to “TGTTTATGGTGATATCTTCTGTTACGTTATATTTCACTGCCGGAGTCACCTAGTGCAG”, the binding signal was 12000 fluorescence intensity (a.u.). The same measure for “AACCCGCTTCCCAAATCCGGCGCCCGTACGCCCGCCCGCCCGGAGTCACCTAGTGCAG”: 8390 fluorescence intensity (a.u.). To “CTTCTCTTGTATTGTAATACTAATATTGGATTACTGCTTCCGGAGTCACCTAGTGCAG” belongs 8270 fluorescence intensity (a.u.); to “GAGAGCGCAATTTAGTCTGTCCATTTAAATTCCTAGTACACGGAGTCACCTAGTGCAG”, 9720 fluorescence intensity (a.u.).

Consider “TGAGCCTGTAACTTTTTCATTCATACGACTATTTTGTGATCGGAGTCACCTAGTGCAG”, for which the binding signal was 9910 fluorescence intensity (a.u.). “ACATACATTTTTCTTGCAATGACTTTTACTGAATAATTTACGGAGTCACCTAGTGCAG”: the binding signal was 8170 fluorescence intensity (a.u.). With “CTATCTCTCGTTGACTCAGATCACTCCAATCATCATGTCCCGGAGTCACCTAGTGCAG”, the binding signal was 13300 fluorescence intensity (a.u.). Take “GAGTAAGTATGTCATGTGGGCTTCCACAAATTTTTTTTATCGGAGTCACCTAGTGCAG”: the binding signal was 8550 fluorescence intensity (a.u.). As for “CCACAAGACGGTGGTTTTCGGCAGGGAGAGGGGATTTGCTCGGAGTCACCTAGTGCAG”, the binding signal was 9220 fluorescence intensity (a.u.). Take “GTCTCCAAGCATCCATTTTCTACACCTTGGACTAATGCACCGGAGTCACCTAGTGCAG”: the binding signal is 9910 fluorescence intensity (a.u.). To “GGATGGTGTGGATGTTGGTGGCGCACTCCCGCGTGTACTACGGAGTCACCTAGTGCAG” belongs 9360 fluorescence intensity (a.u.); to “GCATGTCCAGCATCTGTTTGCTTTATGTTCCTCGATTAATCGGAGTCACCTAGTGCAG”, 9400 fluorescence intensity (a.u.); to “CTCCTCCGTCCACCGCAGCTGGCTTCACCTTTTCCTCGGTCGGAGTCACCTAGTGCAG”, 8230 fluorescence intensity (a.u.). In the case of “GGGTTTGGGTTTTTAGGTTTGGGGAGTTGGGCTGTGTTTACGGAGTCACCTAGTGCAG”, the binding signal is 22100 fluorescence intensity (a.u.). “TTTCACAGGGCATTTCACCGAATATATCATGCTCATCAATCGGAGTCACCTAGTGCAG”: the binding signal was 9260 fluorescence intensity (a.u.). To “TCTCTCTCTCTTTCCTTTTCTTTGACCATCTCTTCTCTCTCGGAGTCACCTAGTGCAG” belongs 9060 fluorescence intensity (a.u.); to “CTAAAACTCAACATATAAACATGCCACCTCATCATCTATACGGAGTCACCTAGTGCAG”, 8110 fluorescence intensity (a.u.). As to “ACTCCATTTACGGGCAACTCTTGCTTGCGCAACGGGCCTTCGGAGTCACCTAGTGCAG”, the binding signal is 8790 fluorescence intensity (a.u.).

Turning to “TTCTACAGTTCAATCAAACGGTCATTCCTATGTTTTTCCTCGGAGTCACCTAGTGCAG”, the binding signal was 9450 fluorescence intensity (a.u.).

On to “AACTCAATTAGTCTTAATGAATTTGTCGTTTTGCATGCCGCGGAGTCACCTAGTGCAG”, for which the binding signal is 9240 fluorescence intensity (a.u.).
